Patent US8476064B2, “Inhibition assay method and device for detection of antibiotics” (Charm Sciences, Inc., priority 2006, dated 2013)
At least one compound was matched to its structure with a doubt left.

Test system: B.st. spores
Test: Antibiotic detection test in spiked milk, Trizma/succinate culture of Example 7 (Table 5)
Assay type: cell-based, Bacillus (Geobacillus) Stearothermophilus
Conditions: for 16 hr Result: 16 hours later; for Result: immediately after test completion
Protocol: A Trizma/Succinate solution was prepared by adding 2.5 grams Trizma Base and 6 grams Succinate to 100 mL of reverse osmosis/deionized water (RO/DI Water) in a 125 mL flask. 40 milligrams of BCP (see example 1 for BCP preparation) was then added to a 50 mL conical tube and 25 mL of the Trizma/Succinate solution was added to the 40 milligrams BCP and mixed.
The media was prepared by dissolving 5 grams glucose and 1 gram Mueller Hinton Broth in 100 mL RO/DI Water. 1.2 mL of a 0.01 mg/mL solution of trimethoprim in RO/DI water was added to the media. 20 mL of the BCP/Trizma/Succinate preparation was added to the media and the media was sterile filtered through a 0.45 micron filter and cooled to 4 degrees C.
0.3 grams Difco Bacto-Agar (Item #0140-01), 0.225 NaCl and 17 mL of RO/DI water was combined and mixed and heated the mixture to 95° C. The mixture was removed from the heat and allowed it to cool to 75° C. and then 6 mL media (with BCP/Tris) was added and mixed for 5 minutes. The mixture was cooled to 57° C. and 2 mL spore (concentration of 1 billion cfu/mL) was added and mixed for 5 minutes. 0.200 mL was dispensed into the bottom of each vial.
In test operation 200 microliters of various milk samples, spiked with known concentrations of antibiotics, were pipetted into vials and incubated for the prescribed time (in this test 2 hours 30 minutes) and prescribed temperature (64 degrees C.+/−2 degrees C.). Results were recorded immediately after test completion and 16 hours later. Incubation was in various Charm Inctronic I incubators. Concentrations listed are in parts per billion (ppb). 4 samples were run at each concentration except 16 negative samples were run and 2 samples each for 3 ppb pen G and amoxicillin. Abbreviations are pencillin G (PenG); sulfamethazine (SMZ); sulfadimethoxine (SDM); tylosin (TY); gentamicin (G); oxytetracycline (OT); pirlimycin (Pirl); amoxicillin (Amox); ampicillin (Amp); cloxacillin (Clox); ceftiofur sodium (Ceft); cephaprin (Ceph); tilmicosin (Til); sulfadoxine (SDN); neomycin (Neo).

CN(C)[C@@H]1C(O)=C(C(N)=O)C(=O)[C@@]2(O)C(O)=C3C(=O)c4c(O)cccc4[C@@](C)(O)[C@H]3[C@H](O)[C@@H]12 [OT, oxytetracycline]
Pos: 16 hr Result (milk spiked at 200 ppb) | Result (milk spiked at 200 ppb) | 16 hr Result (milk spiked at 300 ppb) | Result (milk spiked at 300 ppb)
